The reference is the same well before dosing, and untreated signal decays as well.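 Labels refer to human fibroblasts, largely primary: uterine (C12385, HUF), lung (H6013), bone (Hs27A), adrenal (HADF), skin (WS1), plus mammary HMF and breast cancer-associated Hs343T. Cancer lines are basal-like or mesenchymal-like triple-negative breast cancer. The paper counts as hits responses shifting over 3x the replicate standard deviation. The tissue of the other fibroblasts is not given here.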
Tested on: BT20
Experiment: relative JC-1 red fluorescence (viability) vs pre-drug, coculture with fibroblast (fraction); higher = more viable cancer cells
Description: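 JC-1 labelled TNBC cells cocultured 1:1 (1,500 cells each) with CellTrace Violet stained primary or stromal fibroblasts in 384-well plates in FluoroBrite medium, treated with one of 42 anticancer drugs at 0.1, 1, 10 or 100 uM. JC-1 red fluorescence (mitochondrial integrity in cancer cells only) was read by plate reader every 8 h for 72 h. Values are normalised to each well's pre-drug value. The stock of one drug was tenfold lower, so its dose labels may be too high.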

CS(=O)(=O)CCNCc1ccc(-c2ccc3ncnc(Nc4ccc(OCc5cccc(F)c5)c(Cl)c4)c3c2)o1 [Lapatinib]
relative JC-1 red fluorescence
Settings | 8 h | 16 h | 24 h | 32 h | 40 h | 48 h | 56 h | 64 h | 72 h
0.1 µM, coculture fibroblast: C12385 | 0.916 | 0.857 | 0.787 | 0.725 | 0.683 | 0.661 | 0.639 | 0.619 | 0.608
0.1 µM, coculture fibroblast: H6013 | 0.896 | 0.94 | 0.899 | 0.913 | 0.884 | 0.869 | 0.854 | 0.826 | 0.791
0.1 µM, coculture fibroblast: H6019 | 0.854 | 0.804 | 0.781 | 0.736 | 0.703 | 0.693 | 0.66 | 0.633 | 0.628
0.1 µM, coculture fibroblast: H6076 | 0.813 | 0.93 | 0.8732 | 0.8525 | 0.816 | 0.799 | 0.788 | 0.79 | 0.763
0.1 µM, coculture fibroblast: H6231 | 0.84 | 0.896 | 0.88 | 0.8138 | 0.74 | 0.679 | 0.624 | 0.595 | 0.562
0.1 µM, coculture fibroblast: HADF | 0.822 | 0.973 | 0.846 | 0.863 | 0.819 | 0.773 | 0.746 | 0.716 | 0.674
0.1 µM, coculture fibroblast: HCFa | 0.9474 | 0.9199 | 0.9318 | 0.913 | 0.904 | 0.901 | 0.896 | 0.881 | 0.858
0.1 µM, coculture fibroblast: HCPF | 0.809 | 0.869 | 0.918 | 0.864 | 0.81 | 0.755 | 0.711 | 0.701 | 0.662
0.1 µM, coculture fibroblast: HHSteC | 0.9579 | 0.8939 | 0.8642 | 0.802 | 0.752 | 0.717 | 0.7 | 0.68 | 0.651
0.1 µM, coculture fibroblast: HMF | 0.747 | 0.938 | 0.829 | 0.777 | 0.7351 | 0.692 | 0.658 | 0.631 | 0.602
0.1 µM, coculture fibroblast: HPFa | 0.97137 | 0.955 | 0.864 | 0.897 | 0.882 | 0.846 | 0.819 | 0.795 | 0.746
0.1 µM, coculture fibroblast: HUF | 0.95 | 0.887 | 0.873 | 0.822 | 0.797 | 0.77 | 0.773 | 0.766 | 0.758
0.1 µM, coculture fibroblast: Hs5 | 0.802 | 0.861 | 0.9318 | 0.8871 | 0.8487 | 0.825 | 0.801 | 0.772 | 0.7423
0.1 µM, coculture fibroblast: Hs27A | 0.7665 | 0.854 | 0.91 | 0.931 | 0.876 | 0.856 | 0.825 | 0.787 | 0.738
0.1 µM, coculture fibroblast: Hs343T | 0.872 | 0.8928 | 0.8131 | 0.766 | 0.72 | 0.686 | 0.645 | 0.634 | 0.6
0.1 µM, coculture fibroblast: WS1 | 0.8669 | 0.7966 | 0.743 | 0.682 | 0.631 | 0.606 | 0.58 | 0.554 | 0.534
1 µM, coculture fibroblast: C12385 | 0.9384 | 0.8459 | 0.80444 | 0.736 | 0.6783 | 0.6442 | 0.618 | 0.597 | 0.583
1 µM, coculture fibroblast: H6013 | 0.949 | 0.914 | 0.89 | 0.847 | 0.811 | 0.804 | 0.796 | 0.776 | 0.755
1 µM, coculture fibroblast: H6019 | 0.9182 | 0.902 | 0.889 | 0.83 | 0.781 | 0.775 | 0.764 | 0.746 | 0.721
1 µM, coculture fibroblast: H6076 | 0.864 | 0.9076 | 0.828 | 0.793 | 0.757 | 0.734 | 0.722 | 0.72 | 0.701
1 µM, coculture fibroblast: H6231 | 0.74 | 0.925 | 0.842 | 0.778 | 0.734 | 0.687 | 0.652 | 0.619 | 0.587
1 µM, coculture fibroblast: HADF | 0.94 | 0.963 | 0.925 | 0.906 | 0.899 | 0.877 | 0.873 | 0.864 | 0.845
1 µM, coculture fibroblast: HCFa | 0.974 | 0.911 | 0.807 | 0.75 | 0.726 | 0.821 | 0.691 | 0.722 | 0.764
1 µM, coculture fibroblast: HCPF | 0.74 | 0.97 | 0.879 | 0.816 | 0.7607 | 0.69 | 0.6544 | 0.6298 | 0.6039
1 µM, coculture fibroblast: HHSteC | 0.9135 | 0.885 | 0.9006 | 0.826 | 0.8 | 0.775 | 0.761 | 0.746 | 0.722
1 µM, coculture fibroblast: HMF | 0.849 | 0.894 | 0.806 | 0.744 | 0.703 | 0.654 | 0.621 | 0.603 | 0.576
1 µM, coculture fibroblast: HPFa | 0.833 | 0.812 | 0.81107 | 0.727 | 0.752 | 0.726 | 0.767 | 0.764 | 0.659
1 µM, coculture fibroblast: HUF | 0.945 | 0.89 | 0.8515 | 0.765 | 0.724 | 0.681 | 0.662 | 0.649 | 0.631
1 µM, coculture fibroblast: Hs5 | 0.837 | 0.903 | 0.823 | 0.771 | 0.728 | 0.687 | 0.6445 | 0.6185 | 0.5882
1 µM, coculture fibroblast: Hs27A | 0.771 | 0.77 | 0.966 | 0.947 | 0.902 | 0.8704 | 0.8536 | 0.8267 | 0.7755
1 µM, coculture fibroblast: Hs343T | 0.839 | 0.888 | 0.82 | 0.761 | 0.722 | 0.682 | 0.656 | 0.637 | 0.611
1 µM, coculture fibroblast: WS1 | 0.886 | 0.814 | 0.795 | 0.726 | 0.677 | 0.66 | 0.631 | 0.607 | 0.599
10 µM, coculture fibroblast: C12385 | 0.8847 | 0.804 | 0.736 | 0.725 | 0.7015 | 0.6985 | 0.699 | 0.702 | 0.698
10 µM, coculture fibroblast: H6013 | 0.944 | 0.929 | 0.86 | 0.88 | 0.84 | 0.823 | 0.825 | 0.811 | 0.81
10 µM, coculture fibroblast: H6019 | 0.8909 | 0.851 | 0.8422 | 0.79819 | 0.796 | 0.796 | 0.792 | 0.773 | 0.762
10 µM, coculture fibroblast: H6076 | 0.823 | 0.941 | 0.91 | 0.873 | 0.869 | 0.85 | 0.802 | 0.82 | 0.796
10 µM, coculture fibroblast: H6231 | 0.757 | 0.898 | 0.788 | 0.731 | 0.7 | 0.668 | 0.657 | 0.641 | 0.636
10 µM, coculture fibroblast: HADF | 0.793 | 0.981 | 0.855 | 0.883 | 0.865 | 0.837 | 0.82 | 0.805 | 0.782
10 µM, coculture fibroblast: HCFa | 0.857 | 0.927 | 0.89 | 0.918 | 0.932 | 0.928 | 0.925 | 0.935 | 0.905
10 µM, coculture fibroblast: HCPF | 0.769 | 0.887 | 0.912 | 0.843 | 0.788 | 0.751 | 0.698 | 0.679 | 0.643
10 µM, coculture fibroblast: HHSteC | 0.959 | 0.9 | 0.859 | 0.821 | 0.782 | 0.77 | 0.761 | 0.774 | 0.758
10 µM, coculture fibroblast: HMF | 0.833 | 0.99 | 0.895 | 0.828 | 0.77 | 0.713 | 0.679 | 0.641 | 0.62
10 µM, coculture fibroblast: HPFa | 0.901 | 0.936 | 0.907 | 0.865 | 0.863 | 0.855 | 0.8616 | 0.868 | 0.869
10 µM, coculture fibroblast: HUF | 0.924 | 0.831 | 0.776 | 0.715 | 0.696 | 0.676 | 0.679 | 0.699 | 0.695
10 µM, coculture fibroblast: Hs5 | 0.721 | 0.94 | 0.87 | 0.829 | 0.806 | 0.793 | 0.779 | 0.761 | 0.748
10 µM, coculture fibroblast: Hs27A | 0.807 | 0.807 | 0.894 | 0.845 | 0.808 | 0.852 | 0.901 | 0.933 | 0.898
10 µM, coculture fibroblast: Hs343T | 0.827 | 0.923 | 0.829 | 0.786 | 0.7314 | 0.69227 | 0.656 | 0.641 | 0.615
10 µM, coculture fibroblast: WS1 | 0.86 | 0.832 | 0.83 | 0.851 | 0.848 | 0.849 | 0.847 | 0.83 | 0.813
100 µM, coculture fibroblast: C12385 | 0.876 | 0.81338 | 0.7931 | 0.7363 | 0.69 | 0.6598 | 0.6318 | 0.612 | 0.589
100 µM, coculture fibroblast: H6013 | 0.892 | 0.862 | 0.9674 | 0.96074 | 0.922 | 0.918 | 0.915 | 0.876 | 0.848
100 µM, coculture fibroblast: H6019 | 0.8777 | 0.809 | 0.777 | 0.708 | 0.668 | 0.64515 | 0.61781 | 0.5966 | 0.58323
100 µM, coculture fibroblast: H6076 | 0.9921 | 0.912 | 0.8531 | 0.8415 | 0.8074 | 0.7919 | 0.792 | 0.786 | 0.778
100 µM, coculture fibroblast: H6231 | 0.725 | 0.941 | 0.844 | 0.786 | 0.725 | 0.679 | 0.649 | 0.616 | 0.583
100 µM, coculture fibroblast: HADF | 0.842 | 0.864 | 0.779 | 0.858 | 0.818 | 0.746 | 0.817 | 0.747 | 0.694
100 µM, coculture fibroblast: HCFa | 0.942 | 0.956 | 0.964 | 0.926 | 0.906 | 0.8958 | 0.883 | 0.87 | 0.829
100 µM, coculture fibroblast: HCPF | 0.751 | 0.926 | 0.889 | 0.864 | 0.835 | 0.759 | 0.807 | 0.736 | 0.711
100 µM, coculture fibroblast: HHSteC | 0.9192 | 0.865 | 0.833 | 0.769 | 0.7275 | 0.702 | 0.6839 | 0.65 | 0.631
100 µM, coculture fibroblast: HMF | 0.881 | 0.933 | 0.8485 | 0.796 | 0.7635 | 0.7151 | 0.6833 | 0.6473 | 0.612
100 µM, coculture fibroblast: HPFa | 0.972 | 0.913 | 0.92 | 0.853 | 0.842 | 0.803 | 0.783 | 0.753 | 0.711
100 µM, coculture fibroblast: HUF | 0.9107 | 0.818 | 0.777 | 0.7 | 0.655 | 0.617 | 0.605 | 0.591 | 0.579
100 µM, coculture fibroblast: Hs5 | 0.825 | 0.905 | 0.825 | 0.763 | 0.725 | 0.692 | 0.652 | 0.631 | 0.602
100 µM, coculture fibroblast: Hs27A | 0.719 | 0.801 | 0.78 | 0.873 | 0.727 | 0.873 | 0.858 | 0.813 | 0.779
100 µM, coculture fibroblast: Hs343T | 0.802 | 0.909 | 0.834 | 0.765 | 0.7133 | 0.6654 | 0.621 | 0.588 | 0.5465
100 µM, coculture fibroblast: WS1 | 0.8521 | 0.788 | 0.757 | 0.705 | 0.649 | 0.622 | 0.59 | 0.569 | 0.548

Reference: the supplement of paper PMC6078165
